Results reported in US8415327B2, “Methods of and compositions for reducing cell death” (priority 2009, dated 2013).
Some of these results come from one statement about several compounds together. Some ranges recur; such a range may be that of the whole group of compounds.

System: RGC-5 cells
Test: Rescue of RGC-5 cells from METC-active drugs (menadione, rotenone, antimycin A), calcein/propidium iodide viability assay
Settings: 24 hours
Method: Cell Culture: RGC-5 cells were cultured in Dulbecco's modified Eagle's medium (DMEM) (Mediatech, Inc., Manassas, Va.). containing 1 g/L glucose, supplemented with 10% fetal bovine serum, 100 U/mL penicillin, and 100 μg/mL streptomycin (Mediatech, Inc.). Cells were passaged every 48 to 72 hours when cells were approximately 60 to 75% confluent, replated at a 1:20 dilution in a 75 cm^2 flask in 20 ml of cell culture media and incubated at 37° C. in humidified 5% CO2. Experiments were performed in duplicate or triplicate.
Cell Treatment and Assessment of Viability: Cells were plated in 96-well plates at a density of 60 cells/mm^2 in 50 μL of media. […] Live (calcein-positive) and dead (propidium iodide-positive) cells were assessed using Image) software. Pictures were batch analyzed using a macro containing the following actions: subtract background, threshold, erode, erode, watershed, and analyze particles between the sizes of 1000 pixels and infinity. […] Each experiment was analyzed with respect to its own set of controls to account for variation in passage number of the RGC-5 cells and small differences between batches of cryopreserved RGC-5 cells.
Statistics: Viability was assessed as number of live cells/mm^2, and compared to the untreated controls of each experiment. […]

Compound	cell death caused without additional treatment (3.16 μM)	cell death caused without additional treatment (1 μM)
C=C(C)[C@H]1Cc2c(ccc3c2O[C@@H]2COc4cc(OC)c(OC)cc4[C@@H]2C3=O)O1 [rotenone, reference compound]	50-70%	–
antimycin A [reference compound]	–	50-70%
